From patent US8318943B1, “Sorbitol/dexlansoprazole co-crystals and method for making same” (Takeda Pharmaceuticals U.S.A., Inc., priority 2010, dated 2012)
At least one structure is not confirmed: it was looked up by name or label, or the drawing left a doubt.

Experiment: Approximate solubility by manual dilution combined with visual observation
Conditions: room temperature, MeOH

With `Cc1c(OCC(F)(F)F)ccnc1C[S+]([O-])c1nc2ccccc2[nH]1.Cc1c(OCC(F)(F)F)ccnc1C[S+]([O-])c1nc2ccccc2[nH]1.OCC(O)C(O)C(O)C(O)CO.OCC(O)C(O)C(O)C(O)CO.OCC(O)C(O)C(O)C(O)CO` (stereo not shown) [SP134-SBT-P7] the “Solubility (mg/mL)” value was 23-3.
